From the supplement of paper PMC12889115
This is one part of the list. Values are raw readings; no control value is given beside them.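 In the initial screen, polymyxin B was used at a concentration that permeabilizes Salmonella's outer membrane but not its inner membrane. Maximum growth was set by DMSO wells with or without polymyxin B. Since plates varied, data were ranked per plate, and compounds giving the lowest OD600 advanced as hits.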

Tested on: Salmonella enterica serovar Typhimurium SL1344
Experiment: bacterial growth OD600 after 18 h with compound and polymyxin B; higher = more bacterial growth (less inhibition)
Conditions: 50 µM, Mueller-Hinton broth

| Compound | bacterial growth OD600 (polymyxin B 0.75 µg/mL) | bacterial growth OD600 (polymyxin B 1 µg/mL) |
| --- | --- | --- |
| O=C(CCN1CCCO1)N1CCc2[nH]nc(-c3cccc4ccccc34)c2C1 | 0.772 |  |
| CCOC(=O)C1(C/C=C/c2ccccc2)CCCN(C(=O)CSc2nnc(C)s2)C1 (stereo not drawn) |  | 0.643 |
| C=CCC(O)(CC=C)CNC1CCN(c2ccc(C(=O)NCc3ccccc3F)cc2)CC1 | 0.935 |  |
| O=C1N(Cc2cccc(F)c2F)CCCC1(O)CNCC1CCCCC1 (stereo not drawn) | 0.882 |  |
| C=CCN(Cc1cn(-c2ccccc2)nc1-c1cccc(OC)c1)C1CCS(=O)(=O)C1 (stereo not drawn) |  | 0.608 |
| Fc1ccccc1Oc1ncccc1CNCc1cccn1-c1cccnc1 | 0.783 |  |
| CN(CCC1CCCCO1)C(=O)c1csc2nc(-c3cccc(F)c3)cn12 (stereo not drawn) |  | 1.17 |
| O=C(CSc1ccccc1)N1CCc2onc(-c3ccc(Cl)cc3)c2C1 | -0.001 |  |
| Cn1cc(CN2CCCC(C(=O)c3nccn3C)C2)c(-c2ccc3c(c2)OCCO3)n1 (stereo not drawn) |  | 1 |
| O=C(NCc1cccs1)c1cc(COc2ccccc2)[nH]n1 | 0.424 |  |
| O=C(NCc1ccccn1)C1CCCN(C2CCN(Cc3ccccc3)CC2)C1 (stereo not drawn) | 0.817 |  |
| COc1ccc(OCc2cc(C(=O)NCc3c(C)n[nH]c3C)n[nH]2)c(Cl)c1 |  | 1.05 |
| CCOC(=O)C1(Cc2ccc(Cl)cc2)CCN(C(=O)C2CC23CCCC3)CC1 (stereo not drawn) |  | 0.014 |
| CCN1CCN(C2(C(=O)NCCCOC(C)C)Cc3ccccc3C2)CC1 | 0.967 |  |
| CC(C)(C)CN1CCOc2ccc(C(C)(O)COc3ccccc3)cc2C1 (stereo not drawn) | 0.074 |  |
| CCc1csc(CNC(=O)c2ccc(N(C)Cc3cnn(C)c3)nc2)n1 | 0.789 |  |
| COc1ccc(/C=C/CN2CCCC(CO)(Cc3cccc(Cl)c3)C2)cc1 (stereo not drawn) |  | 0.682 |

Two records picked at random from the list so far, as already listed:

| Compound | bacterial growth OD600 (polymyxin B 0.75 µg/mL) | bacterial growth OD600 (polymyxin B 1 µg/mL) |
| --- | --- | --- |
| O=C1N(Cc2cccc(F)c2F)CCCC1(O)CNCC1CCCCC1 (stereo not drawn) | 0.882 |  |
| CCOC(=O)C1(Cc2ccc(Cl)cc2)CCN(C(=O)C2CC23CCCC3)CC1 (stereo not drawn) |  | 0.014 |

Next part.

| Compound | bacterial growth OD600 (polymyxin B 0.75 µg/mL) | bacterial growth OD600 (polymyxin B 1 µg/mL) |
| --- | --- | --- |
| O=C(CCc1nnc(CCCc2ccccc2)o1)N1CCN(c2ccncc2)CC1 |  | 0.903 |
| COc1cccc(-c2nc(CN(CCO)CC34CC5CC(CC(C5)C3)C4)c(C)o2)c1OC | 0.611 |  |
| Cc1cc(C)n(CC(=O)NCc2cccnc2Oc2ccccc2F)n1 | 0.848 |  |
| O=C1CCC(CCC(=O)NC2(c3ccccc3)CC2)(Cc2ccc(F)cc2)N1 (stereo not drawn) | 0.829 |  |
| O=C(CCc1cccnc1)N1CCc2onc(-c3ccc(F)c(F)c3)c2C1 | 0.83 |  |
| COc1ccc(CC2(CCC(=O)N(C)CC(C)C)CCC(=O)N2)c2ccccc12 (stereo not drawn) | 0.745 |  |
| COCCN(C)Cc1nc(Cc2ccccc2Cl)no1 |  | 0.859 |
| COc1cccc(-c2cc(CC3(O)CCN(CC4CC=CCC4)CC3)on2)c1 (stereo not drawn) |  | 0.85 |
| Cc1c(C(=O)NC(CCn2cncn2)c2ccccc2)oc2c(F)cccc12 (stereo not drawn) | 0.794 |  |
| COC(=O)c1ccccc1C(=O)N1CCC(C(Cc2ccccc2)N(C)C(=O)c2ccoc2C)CC1 (stereo not drawn) | 1.01 |  |
| COc1cccc(CN(C)Cc2nc(Cc3ccccc3Cl)no2)c1 |  | 0.619 |
| COc1ccc(O)c(CN2CCCC(c3[nH]ncc3-c3ccc(Cl)cc3)C2)c1 (stereo not drawn) | 0.398 |  |
| COCCOC1CCN(c2nc3nonc3nc2NC2CCCC2)CC1 |  | 0.761 |
| COCCCC1CCN(Cc2nc(-c3cccc(Cl)c3)no2)CC1 |  | 1.02 |
| O=C1CCC(CCC(=O)N2CCCCC2)(Cc2ccc3ccccc3c2)N1 (stereo not drawn) | 1.01 |  |
| Cc1ccccc1CNC(=O)c1ccc(OC2CCN(S(C)(=O)=O)CC2)c(Cl)c1 |  | 1.2 |
